Paper PMC5626782
These are yes or no findings as the source states them, for the method shown. Binding seen in cells or lysates may run through a third protein. Some results given as binding are weak or reduced against the parent protein; the word gives no strength.

Sequences of proteins named here, by UniProt entry; tags and fusion partners are left off. Residues count along the entry.
UniProt Q61282, residues 20-2132: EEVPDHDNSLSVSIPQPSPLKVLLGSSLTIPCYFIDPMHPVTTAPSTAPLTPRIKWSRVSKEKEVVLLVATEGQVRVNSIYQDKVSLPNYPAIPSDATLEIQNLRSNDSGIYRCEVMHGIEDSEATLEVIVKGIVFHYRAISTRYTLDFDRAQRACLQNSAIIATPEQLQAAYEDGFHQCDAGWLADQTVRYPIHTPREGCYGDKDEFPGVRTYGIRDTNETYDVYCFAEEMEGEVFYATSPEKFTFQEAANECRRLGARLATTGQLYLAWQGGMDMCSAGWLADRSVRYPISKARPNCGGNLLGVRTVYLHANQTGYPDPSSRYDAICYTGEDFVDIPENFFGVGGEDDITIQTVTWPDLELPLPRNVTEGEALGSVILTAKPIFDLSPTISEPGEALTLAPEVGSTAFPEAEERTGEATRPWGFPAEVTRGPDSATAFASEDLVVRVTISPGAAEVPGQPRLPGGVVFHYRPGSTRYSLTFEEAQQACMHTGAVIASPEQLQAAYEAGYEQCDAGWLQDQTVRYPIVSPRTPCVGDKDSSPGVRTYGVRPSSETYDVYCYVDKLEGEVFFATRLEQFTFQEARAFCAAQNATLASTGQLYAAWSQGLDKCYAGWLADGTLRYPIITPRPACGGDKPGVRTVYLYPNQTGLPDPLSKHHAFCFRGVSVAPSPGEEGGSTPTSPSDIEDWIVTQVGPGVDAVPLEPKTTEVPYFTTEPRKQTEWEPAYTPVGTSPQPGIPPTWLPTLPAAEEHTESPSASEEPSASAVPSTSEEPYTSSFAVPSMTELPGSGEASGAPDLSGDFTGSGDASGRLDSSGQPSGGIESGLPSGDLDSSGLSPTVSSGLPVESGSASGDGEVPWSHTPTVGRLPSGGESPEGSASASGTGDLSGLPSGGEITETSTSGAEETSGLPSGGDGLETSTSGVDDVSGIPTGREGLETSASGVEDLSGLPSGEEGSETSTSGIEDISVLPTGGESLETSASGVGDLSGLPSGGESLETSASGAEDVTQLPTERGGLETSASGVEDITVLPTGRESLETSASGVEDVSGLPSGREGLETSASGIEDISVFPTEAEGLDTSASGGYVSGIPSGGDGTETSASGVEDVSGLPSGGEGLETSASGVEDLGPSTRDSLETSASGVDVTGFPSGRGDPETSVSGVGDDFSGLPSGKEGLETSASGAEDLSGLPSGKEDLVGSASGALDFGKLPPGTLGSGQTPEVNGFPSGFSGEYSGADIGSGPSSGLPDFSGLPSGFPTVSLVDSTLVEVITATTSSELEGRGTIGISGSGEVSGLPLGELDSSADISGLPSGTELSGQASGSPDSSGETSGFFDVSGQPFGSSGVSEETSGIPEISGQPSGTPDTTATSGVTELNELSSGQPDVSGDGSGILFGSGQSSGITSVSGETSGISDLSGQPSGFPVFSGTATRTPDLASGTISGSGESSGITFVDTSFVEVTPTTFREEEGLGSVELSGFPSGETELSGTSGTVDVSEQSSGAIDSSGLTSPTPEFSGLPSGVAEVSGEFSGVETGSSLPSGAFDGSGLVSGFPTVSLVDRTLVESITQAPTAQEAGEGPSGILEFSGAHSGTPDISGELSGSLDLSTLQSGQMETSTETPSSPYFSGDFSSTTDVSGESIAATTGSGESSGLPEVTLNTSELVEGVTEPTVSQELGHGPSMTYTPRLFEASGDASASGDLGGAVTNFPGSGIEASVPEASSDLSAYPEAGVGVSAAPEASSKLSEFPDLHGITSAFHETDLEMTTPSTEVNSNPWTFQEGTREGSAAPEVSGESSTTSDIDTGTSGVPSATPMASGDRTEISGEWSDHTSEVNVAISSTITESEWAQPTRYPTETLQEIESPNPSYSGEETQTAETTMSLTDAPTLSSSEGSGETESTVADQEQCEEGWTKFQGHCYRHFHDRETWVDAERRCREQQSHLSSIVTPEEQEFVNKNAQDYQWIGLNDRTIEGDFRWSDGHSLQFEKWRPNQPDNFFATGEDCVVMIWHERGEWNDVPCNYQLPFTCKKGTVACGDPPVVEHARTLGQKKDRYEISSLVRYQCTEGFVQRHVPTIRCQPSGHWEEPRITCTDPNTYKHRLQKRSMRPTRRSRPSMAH
UniProt P63073: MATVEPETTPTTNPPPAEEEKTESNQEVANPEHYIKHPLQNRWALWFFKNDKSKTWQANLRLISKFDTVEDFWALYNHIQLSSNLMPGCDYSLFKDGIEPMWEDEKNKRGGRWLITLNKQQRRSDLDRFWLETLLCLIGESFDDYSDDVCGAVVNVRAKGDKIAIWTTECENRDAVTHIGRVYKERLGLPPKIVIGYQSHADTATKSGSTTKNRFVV
UniProt P80206: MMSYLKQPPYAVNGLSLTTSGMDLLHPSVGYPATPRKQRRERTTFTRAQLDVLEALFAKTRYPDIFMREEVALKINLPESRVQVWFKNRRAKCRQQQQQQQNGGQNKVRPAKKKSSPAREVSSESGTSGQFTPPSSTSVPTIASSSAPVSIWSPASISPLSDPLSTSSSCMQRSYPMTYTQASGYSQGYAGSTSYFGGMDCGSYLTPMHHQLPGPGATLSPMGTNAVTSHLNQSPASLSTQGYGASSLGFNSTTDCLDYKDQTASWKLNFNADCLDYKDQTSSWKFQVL

What was measured:
[1] = molecular target: aggrecan (aggrecan-CSPG, chondroitin sulfate proteoglycan) (mouse (endogenous in V1 lysate)) (UniProt Q61282); assay: condition: only cortical lysates pre-incubated with ChABC (chondroitinase ABC); co-IP; mouse V1 lysates pre-incubated with chondroitinase ABC (ChABC); protein A beads conjugated to anti-Otx2 or anti-aggrecan antibody; precipitates analysed by immunoblotting
[2] = molecular target: aggrecan (aggrecan-CSPG, chondroitin sulfate proteoglycan) (mouse (endogenous in V1 lysate)) (UniProt Q61282); assay: co-IP; mouse V1 lysates without ChABC; protein A beads conjugated to 2.5 ug anti-Otx2, anti-aggrecan or anti-eIF4E antibody (normal rabbit IgG as control); precipitates analysed by immunoblotting
[3] = molecular target: translation initiation factor eIF4E (mouse (endogenous in V1 lysate)) (UniProt P63073); assay: as above
[4] = molecular target: Otx2 homeoprotein (mouse (endogenous in V1 lysate)) (UniProt P80206); assay: as above

Row | Substance | binding [1] | binding [2] | binding [3] | binding [4]
1 | Otx2 homeoprotein (from UniProt P80206 1-289) | no binding | binds | binds | –
2 | translation initiation factor eIF4E (from UniProt P63073 1-217) | – | – | – | binds
